Assay results: article PMC13155533, “The secreted protein PCYOX1L controls the surface expression of acid-sensing ion channel 1a” (Science Advances, 2025)

Chains of the proteins cited; added tags and fusions are not shown.
UniProt Q925H0: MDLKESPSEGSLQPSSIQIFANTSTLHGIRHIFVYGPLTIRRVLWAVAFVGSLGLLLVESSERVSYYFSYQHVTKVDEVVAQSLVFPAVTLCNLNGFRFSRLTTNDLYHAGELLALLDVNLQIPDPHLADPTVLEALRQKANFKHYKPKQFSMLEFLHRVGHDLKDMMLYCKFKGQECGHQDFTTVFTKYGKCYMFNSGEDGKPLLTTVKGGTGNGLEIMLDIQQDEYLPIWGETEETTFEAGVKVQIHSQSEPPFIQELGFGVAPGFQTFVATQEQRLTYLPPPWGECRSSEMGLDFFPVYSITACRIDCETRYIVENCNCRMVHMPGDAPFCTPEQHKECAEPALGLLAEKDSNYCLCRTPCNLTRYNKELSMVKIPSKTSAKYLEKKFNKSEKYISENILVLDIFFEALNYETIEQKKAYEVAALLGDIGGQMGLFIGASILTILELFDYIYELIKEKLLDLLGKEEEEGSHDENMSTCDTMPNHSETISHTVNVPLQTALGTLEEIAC

T1: Acid-sensing ion channel 1a (ASIC1a), endogenous in mouse brain (mouse (endogenous in brain)) (UniProt Q6NXK8)
T1 sequence: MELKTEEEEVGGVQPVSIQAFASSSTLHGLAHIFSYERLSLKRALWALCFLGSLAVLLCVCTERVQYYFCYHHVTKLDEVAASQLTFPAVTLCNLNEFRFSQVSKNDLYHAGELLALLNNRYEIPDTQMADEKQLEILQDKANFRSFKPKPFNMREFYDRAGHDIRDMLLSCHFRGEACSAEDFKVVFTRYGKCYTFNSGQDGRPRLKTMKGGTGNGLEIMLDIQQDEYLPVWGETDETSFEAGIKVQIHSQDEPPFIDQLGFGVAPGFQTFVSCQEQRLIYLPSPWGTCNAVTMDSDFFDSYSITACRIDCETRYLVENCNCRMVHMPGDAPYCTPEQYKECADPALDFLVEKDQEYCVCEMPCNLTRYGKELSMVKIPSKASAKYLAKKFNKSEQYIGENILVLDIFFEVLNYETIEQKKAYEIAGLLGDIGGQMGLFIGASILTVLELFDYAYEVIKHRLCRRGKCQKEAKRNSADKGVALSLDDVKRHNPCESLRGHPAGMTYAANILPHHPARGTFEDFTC

B1: prenylcysteine oxidase 1 (PCYOX1), endogenous in mouse brain (protein, UniProt Q9CQF9 29-505)
chain: EPRAPPNRIAIVGAGIGGTSSAYYLRKKFGKDVKIDVFEREEVGGRLATLKVQGHDYEAGGSVIHPLNLHMKRFVKELGLSSVPASGGLVGVYNGKSLVFEESSWFVINVIKLVWRYGFQSLRMHMWVEDLLDKFMRIYRYQSHDYAFSSVEKLMHAIGGDDYVRLLNQTLRENLKKAGFSETFLNEMIAPVMKVNYGQSTDINAFVGAVSLTAADSNLWAVEGGNKIVCSGLLQASSSNLISGSVMSIEEKTRTKQTGNPTKMYEVVYKTGSETHSDFYDIVLVAAPLNRKMSNITFRNFDPPIEEFNDPYQQLVTTFIKGELNSTLFSSRPKDQFGLSAILVTDDSDMFINSLSIVASVRQKEGPPPAVDGMHVWKTFSRDILTKEQISKLFLSYDYAVRKPWLSYPHYEPPQKCPSIILHDRLYYLNGIEFAASCMEMSAIAGYNAALLAYHRWNGNEDMIDQDDLYERLKTEL
B2: prenylcysteine oxidase 1 like (PCYOX1L), endogenous in mouse brain (protein, UniProt Q8C7K6 23-495)
chain: DAPPGKIAVIGAGIGGSAVAHFLQQHFGPRVQIVVYEKGTVGGRLATISVNKQNYESGAASFHSLSLHMQDFVKLLGLRQRREVVGRSAIFGGEHFVLEETDWYLLNLFRLWWYYGISFLRLQMWVEEVMEKFMRIYKYQAHGYAFSGVEELLYSLGEATFVNMTQRSVAESLLQVGVTQRFIDDVVSAVLRASYGQSASMPAFAGAMSLAGAQGNLWSVEGGNKLVCSGLLKLAKATVIHATVTSVTLHSTEGKALYQVAYESDKGNSSDFYDIVVIATPLHLDNSSNNNITFEGFTPPIEDIQGSFQPTVVSLVHGYLNSSYFGFPDPKLFPFANILTTDFPSFFCTLDNICPVNISASFRRKQPQEAAVWRVQSPKPLFRTELKTLFRSYYSVQTAEWQAHPLYGSRRTLPRFALHDQLFYLNALEWAASSVEVTAVAAKNVALLAYNRWYQDLDKIDQKDLIHKVKTEL
B3: ASIC4, endogenous in mouse brain (protein, UniProt Q7TNS7 1-539)
chain: MPIEIVCKIKFAEEDAKPKEKEAGDEQSLLGAAQGPAAPRDLATFASTSTLHGLGRACGPGPHGLRRTLWALALLTSLAAFLYQAASLARGYLTRPHLVAMDPAAPAPVAGFPAVTLCNINRFRHSALSDADIFHLANLTGLPPKDRDGHRAAGLRYPEPDMVDILNRTGHQLADMLKSCNFSGHHCSASNFSVVYTRYGKCYTFNADPQSSLPSRAGGMGSGLEIMLDIQQEEYLPIWRETNETSFEAGIRVQIHSQEEPPYIHQLGFGVSPGFQTFVSCQEQRLTYLPQPWGNCRAESELREPELQGYSAYSVSACRLRCEKEAVLQRCHCRMVHMPGNETICPPNIYIECADHTLDSLGGGSEGPCFCPTPCNLTRYGKEISMVKIPNRGSARYLARKYNRNETYIRENFLVLDVFFEALTSEAMEQQAAYGLSALLGDLGGQMGLFIGASILTLLEILDYIYEVSWDRLKRVWRRPKTPLRTSTGGISTLGLQELKEQSPCPSRGRAEGGGASSLLPNHHHPHGPPGSLFEDFAC

target: T1, Acid-sensing ion channel 1a (ASIC1a), endogenous in mouse brain (mouse (endogenous in brain)); assay: affinity purification with mass spectrometry; two immobilised ASIC1-specific antibodies (OAAB05862 AvivaSysBio; AGP-053 Alomone) on CL-87 solubilized membrane fractions of whole brains of Asic1+/+ and Asic1-/- mice, 2 hours at 4°C; LC-MS/MS

| binding | Molecule |
| --- | --- |
| binds | ASIC2, endogenous in mouse brain (from UniProt Q925H0 1-512) |
| no binding | B1 |
| binds | B2 |
| binds | B3 |

No constants are given. Whether binding was seen depends on the method and setting. In cells and extracts the contact can be indirect. Here binding means that the protein was enriched with, or labelled near, the bait; the list need not be complete. No binding means not detected with the bait.
